Experimental data as given in publication PMC6277087.

Chains of the proteins cited; added tags and fusions are not shown. Lines headed by an entry give the natural chain unless they say otherwise; changes in a name come on top.
UniProt Q9VAC4: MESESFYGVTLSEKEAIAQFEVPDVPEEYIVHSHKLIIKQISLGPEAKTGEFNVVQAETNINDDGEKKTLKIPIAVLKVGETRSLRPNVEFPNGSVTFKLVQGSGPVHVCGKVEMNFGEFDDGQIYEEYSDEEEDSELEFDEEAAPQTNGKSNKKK

Tests used:
[1] = molecular target: T1, NLP F6E, V5-tagged (Drosophila) (UniProt Q27415); test: co-IP; S2 cells transfected with V5-tagged constructs; nuclear lysate with Benzonase, 300 mM then 150 mM NaCl, 0.5% IGEPAL CA-630; Anti-V5 Agarose Affinity Gel overnight at 4°C; endogenous HMR detected by western blot
T1 sequence: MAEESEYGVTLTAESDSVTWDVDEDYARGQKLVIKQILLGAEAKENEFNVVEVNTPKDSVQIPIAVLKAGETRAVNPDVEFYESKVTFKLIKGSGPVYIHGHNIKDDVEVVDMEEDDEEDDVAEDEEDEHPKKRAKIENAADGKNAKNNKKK

[2] = molecular target: T2, NLP F6E/I62E/V79E triple mutant, V5-tagged (Drosophila) (UniProt Q27415); test: as above
T2 sequence: T1 sequence with I62E, V79E

[3] = molecular target: T3, NLP I62E, V5-tagged (Drosophila) (UniProt Q27415); test: as above
T3 sequence: T1 sequence with E6F, I62E

[4] = molecular target: T4, NLP V79E, V5-tagged (Drosophila) (UniProt Q27415); test: as above
T4 sequence: T1 sequence with E6F, V79E

[5] = molecular target: T5, Nucleoplasmin-Like Protein, V5-tagged (NLP-V5) (Drosophila) (UniProt Q27415); test: as above
T5 sequence: T1 sequence with E6F

[6] = molecular target: T6, Nucleoplasmin-Like Protein (NLP), endogenous (Drosophila (endogenous in Schneider S2 cells)) (UniProt Q27415); test: SEC; total S2 cell extract on Superdex200 10/300 GL in 50 mM Tris-HCl pH 8, 150 mM NaCl, 1 mM EDTA, 1% reduced Triton X-100; fractions blotted with anti-NLP and anti-NPH
T6 sequence: T1 sequence with E6F

[7] = molecular target: T1, NLP F6E, V5-tagged (Drosophila); test: co-IP; S2 cells co-transfected with V5- and HA-tagged constructs; nuclear lysate with Benzonase, 300 mM then 150 mM NaCl, 0.5% IGEPAL CA-630; rabbit anti-V5 antibody and Protein A Dynabeads; western blot with anti-V5 and anti-HA
[8] = molecular target: T2, NLP F6E/I62E/V79E triple mutant, V5-tagged (Drosophila); test: as above
[9] = molecular target: T3, NLP I62E, V5-tagged (Drosophila); test: as above
[10] = molecular target: T4, NLP V79E, V5-tagged (Drosophila); test: as above
[11] = molecular target: T5, Nucleoplasmin-Like Protein, V5-tagged (NLP-V5) (Drosophila); test: as above
[12] = molecular target: Nucleophosmin, V5-tagged (NPH-V5) (Drosophila) (UniProt Q9VAC4); test: as above

- binding [1]: no binding
- binding [2]: no binding
- binding [3]: binds weakly
- binding [4]: no binding
- binding [5]: binds
Molecule: Hybrid Male Rescue (HMR), endogenous

- binding [6]: binds
Molecule: Nucleophosmin (NPH), endogenous

- binding [7]: no binding
- binding [8]: no binding
- binding [9]: binds weakly
- binding [10]: no binding
- binding [11]: binds
Molecule: Nucleophosmin, HA-tagged (NPH-HA) (from UniProt Q9VAC4)

- binding [12]: binds
B1: Nucleoplasmin-Like Protein, HA-tagged (NLP-HA) (protein, UniProt Q27415 1-152)
chain: T1 sequence with E6F

Positions count from the first letter of the chain named. These are yes or no findings as the source states them, for the method shown. For part of these data: Binding can be weak; no strength is given. For part of these data: Binding seen in cells or lysates may run through a third protein. For part of these data: Sequences can lack the tags named with a protein. One block for each molecule: values may come before it.
